Key:
male Wistar strain rats = assay: Excretion of cholesterol into feces during three days before dissection; assay type: in vivo, rat; settings: 0.1 mmol per kg feed, mean ± SD
Experimental: (§1) Twenty-four nine-week old male Wistar strain rats were used and divided into four groups each comprising six rats, including a control group, a 0.1 mmol/kg capsaicin group, a 0.1 mmol/kg capsinoid group, and a 1.0 mmol/kg capsinoid group. A 20% lard food to which 1% cholesterol was added was administered as a feed to the control group. For the remaining three groups, capsaicin of 0.1 mmol per kg final concentration of the feed, capsinoid of 0.1 mmol per kg final concentration of the feed, and capsinoid of 1.0 mmol per kg final concentration of the feed, respectively, were added to the feed, similar to the control group. The capsinoid was a mixture of 4-hydroxy-3-methoxybenzyl (E)-8-methyl-6-nonenoate and 4-hydroxy-3-methoxybenzyl 8-methylnonanoate in about 2:1 ratio.
(§2) The above groups each comprising six rats were subjected to pair feeding for four weeks. Breeding of the experimental animals was conducted in each individual cage and, during the breeding period, body weight was measured once a week and ingested amount of the feed was calculated by deducting the residue from the administered amount. Feces were collected for three days before dissection. After completion of breeding, the rats were sacrificed and dissected. Blood was collected. […] Furthermore, the ratio of the excised organs to the total body weight was calculated. […]

[1] = Breeding process: body weight and ingested amount of feed in rats on 20% lard food with 1% cholesterol; assay type: in vivo, rat; settings: 0.1 mmol per kg feed, pair feeding four weeks; mean ± SD
Experimental: as §1, §2

With `COc1cc(CNC(=O)CCCC/C=C/C(C)C)ccc1O` [Capsaicin, capsaicin] the “Ingested Amount of Feed” value (male Wistar strain rats) was 49.3 ± 3.1 g/3 days, the “Excreted Amount of Feces” value (male Wistar strain rats; * p<0.05) was 3.3 ± 0.4 g/3 days and the “Average Ingested Amount (g) of Feed” value [1] was 17.0 ± 1 g.
